From PubChem BioAssay AID1487 (National Center for Advancing Translational Sciences (NCATS), 2009)
Where “and” joins values, the source holds several entries; their conditions need not be identical. Equal entries are not always repeated. Some of the results follow. Shown are side measurements of this screen, not its main read-out; they come without a call. The list favours compounds with an active or inconclusive main result. Potencies come from curve fits of mixed quality, noted in brackets.

Assay: qHTS Assay for Modulators of Lamin A Splicing
Conditions: HeLa LMNA splicing GFP/RFP minigene ratio, 48 h
In short: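 Read-out is the ratio of GFP to DsRed2 object intensity, acquired by 488 nm laser-scanning cytometry on HeLa lamin A-EGFP minigene reporter cells. Compound incubation 48 hrs at 37 °C in Opti-MEM with 2% FBS; DMSO 0.5% final.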

[1] = measured here: RFP viability control channel
[2] = measured here: GFP splicing reporter channel

SMILES | AC50 [1] | AC50 [2]
Cn1c(C(=O)N2CCCC(C(=O)NCCCSC3CCCCC3)C2)cc2sccc21 (configuration not stated) | 12.6 µM [rising, partial curve] | 
CCOC(=O)C1C(=O)C=C(c2ccc(Br)cc2)CC1c1ccco1 (configuration not stated) | 17.8 µM [falling, single point] | 28.2 µM [falling, single point]
CC(C)Cc1nc2oc3c(NCCCN4CCOCC4)ncnc3c2c2c1CCC2 |  | 35.5 µM [rising, single point]
CC(C)[N+](C)(CCOC(=O)C1c2ccccc2Oc2ccccc21)C(C)C | 631 nM [rising, full curve] and 25.1 µM [rising, single point] | 11.2 µM [rising, partial curve] and 35.5 µM [rising, single point]
CS(=O)(=O)c1ccc(-c2nnn(CC(N)=O)n2)cc1 | 3.16 µM [rising, single point] | 
CCOC(=O)c1c(-c2ccc(F)cc2)csc1NC(=O)CN1C(=O)NC2(CCCCC2C)C1=O (configuration not stated) |  | 31.6 µM [rising, single point]
Cc1cccc(C(=O)Nc2ccc(C(=O)/C=C/c3cccs3)cc2)c1 | 20 µM [rising, single point] | 12.6 µM [rising, partial curve]
CNc1nc(-c2ccccn2)nnc1-c1ccccc1 | 8.91 µM [rising, partial curve] | 
CCN(CC)CCN1CCn2c3c(c4cc(C)ccc42)CCCC31 (configuration not stated) | 20 µM [rising, single point] | 
Cc1nn(C)c(C)c1N1C(=O)c2cccc3c(N)ccc(c23)C1=O | 35.5 µM [falling, single point] | 20 µM [falling, partial curve]
COc1cccc(OCC(=O)O/N=C(\N)c2ccc(OC)c(OC)c2)c1 | 15.8 µM [rising, partial curve] | 
CC(C)c1nc2ccc(C(=O)NCc3ccc(F)cc3)cc2o1 |  | 0.562 µM [falling, full curve, poor fit]
COc1ccccc1Oc1ccc(N/C=C/C(=O)C(C)(C)C)cc1 | 0.00398 µM [falling, full curve, poor fit] | 
CCNc1nc(C)nc2c1oc1ccccc12 |  | 10 µM [rising, partial curve, poor fit]
CCc1ccc(N=CC23c4ccccc4C(c4ccccc42)C2C(=O)N(c4ccc(OC)cc4)C(=O)C23)cc1 (configuration not stated) | 20 µM [falling, single point] | 
O=C(CNc1ccc2c(c1)OCO2)N/N=C\c1cn(Cc2ccc(F)cc2)c2ccccc12 | 6.31 µM [rising, partial curve] | 
Cc1ccc(C(=O)C2CCN(CC(=O)N3CCN(c4ccc(F)cc4)CC3)CC2)cc1 | 25.1 µM [falling, partial curve] | 15.8 µM [falling, partial curve]
N#C/C(=C/c1ccc(N2CCCCC2)o1)C(=O)Nc1ccc(Cl)cc1 | 4.47 µM [falling, full curve] | 4.47 µM [falling, full curve]

SMILES | AC50 [1] | AC50 [2]
Cc1cccc(C)c1NC(=O)c1c(C)oc2c1C1=NCCN1C=N2 |  | 0.141 µM [falling, full curve, poor fit]
CCCc1cc(=O)[nH]c(SCC(=O)NCCCC(=O)OCC)n1 |  | 0.501 µM [falling, single point]
COc1ccc(NC(=O)C2CC(=O)N(Cc3ccc(C)cc3)C2)cc1S(=O)(=O)N1CCCCC1 (configuration not stated) | 12.6 µM [rising, partial curve] | 1.12 µM [rising, partial curve]
Cc1ccc[n+](C(C)C(=O)c2ccc(-c3ccccc3)cc2)c1 (configuration not stated) | 15.8 µM [rising, partial curve] | 10 µM [rising, partial curve, poor fit]
NC(=S)NNc1cc(Cl)cc(Cl)c1 | 20 µM [rising, single point] | 22.4 µM [rising, partial curve, poor fit]
Cc1c(Cl)cccc1-n1c(SCC(=O)NCc2ccccc2)nc2n[nH]c(C)c2c1=N | 17.8 µM [falling, partial curve, poor fit] | 
Cc1cc(N/N=C/c2ccc(O)cc2O)nc(-n2nc(C)cc2C)n1 | 8.91 µM [rising, partial curve, poor fit] | 
O=C(CSc1nnnn1C1CC2CCC1C2)Nc1ccnc2ccccc12 (configuration not stated) | 0.112 µM [rising, full curve] | 0.0891 µM [rising, full curve, poor fit]
CC(C(=O)NCCc1nc2ccccc2[nH]1)n1cc([N+](=O)[O-])cn1 (configuration not stated) | 0.282 µM [falling, full curve, poor fit] | 
Cc1ccc(-c2noc(CCC(=O)NCCCN3CCN(c4ccc(F)cc4)CC3)n2)cc1 | 20 µM [rising, partial curve] | 
Cc1ccc(S(=O)(=O)NC(C)(C)CSc2nnc(Nc3ccccc3)s2)cc1 | 31.6 µM [rising, single point] | 
COc1ccc(S(=O)(=O)N2CCCC(C(=O)Nc3cccnc3)C2)cc1Cl (configuration not stated) | 12.6 µM [rising, partial curve] | 
Cc1nc2cc(S(=O)(=O)N3CCC(C(=O)O)CC3)ccc2n1C1CCCC1 | 0.631 µM [falling, full curve] | 10 µM [falling, partial curve]
CCn1c(CN2CCOCC2)nc2cc(NC(=O)c3ccc([N+](=O)[O-])cc3)ccc21 | 7.94 µM [falling, full curve] | 
Cc1c(C(=O)N(Cc2ccc(Cl)cc2)CC2CCCO2)oc2ccc(F)cc12 (configuration not stated) |  | 0.316 µM [falling, full curve, poor fit]
Cc1cc(C)n(CC(=O)N/N=C/c2cccc([N+](=O)[O-])c2)n1 | 15.8 µM [rising, single point] | 11.2 µM [rising, single point]
O=C(CSc1nnc(NC(=O)C2CC2)s1)Nc1ccc(F)cc1 | 5.62 µM [rising, partial curve] | 

Shown field by field: part of the list above
Cc1cc(N/N=C/c2ccc(O)cc2O)nc(-n2nc(C)cc2C)n1
  AC50 [1]: 8.91 µM [rising, partial curve, poor fit]
CCn1c(CN2CCOCC2)nc2cc(NC(=O)c3ccc([N+](=O)[O-])cc3)ccc21
  AC50 [1]: 7.94 µM [falling, full curve]
